These are yes or no findings as the source states them, for the method shown. Some results given as binding are weak or reduced against the parent protein; the word gives no strength.

Amino acid sequences for entries named in this document (tags omitted). Residues count along the entry.
UniProt P07174, residues 30-425: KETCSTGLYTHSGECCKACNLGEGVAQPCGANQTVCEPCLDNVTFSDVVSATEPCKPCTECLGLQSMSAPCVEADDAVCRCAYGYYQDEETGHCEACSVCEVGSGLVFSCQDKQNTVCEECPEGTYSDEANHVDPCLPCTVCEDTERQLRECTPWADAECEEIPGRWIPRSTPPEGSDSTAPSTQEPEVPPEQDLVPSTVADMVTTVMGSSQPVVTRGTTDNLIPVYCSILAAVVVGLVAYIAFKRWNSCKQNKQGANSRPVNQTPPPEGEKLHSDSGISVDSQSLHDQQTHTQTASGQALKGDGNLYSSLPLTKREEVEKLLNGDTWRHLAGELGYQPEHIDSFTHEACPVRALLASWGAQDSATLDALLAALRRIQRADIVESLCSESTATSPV
UniProt P01139, residues 122-241: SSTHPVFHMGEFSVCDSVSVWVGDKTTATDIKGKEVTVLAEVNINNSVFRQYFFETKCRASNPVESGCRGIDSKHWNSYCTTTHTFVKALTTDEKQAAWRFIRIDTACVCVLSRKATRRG

The target in this assay is low affinity nerve growth factor receptor (LNGFR) on PC12 cells (rat) (UniProt P07174). The assay can be described thus: NGF cross-linking assay on cells.

“nerve growth factor (NGF) (from UniProt P01139 122-241) (ligand)”: the binding result is “binds”.
